# Experimental data published in the supplement of paper PMC12823440, “Inhibitors supercharge kinase turnover through native proteolytic circuits” (Nature, 2025).
# The chains behind the UniProt entries cited, without tags or fusion partners. Where a name states a change or a piece, a line headed by the entry shows the natural chain unless it says otherwise.
# UniProt O75460: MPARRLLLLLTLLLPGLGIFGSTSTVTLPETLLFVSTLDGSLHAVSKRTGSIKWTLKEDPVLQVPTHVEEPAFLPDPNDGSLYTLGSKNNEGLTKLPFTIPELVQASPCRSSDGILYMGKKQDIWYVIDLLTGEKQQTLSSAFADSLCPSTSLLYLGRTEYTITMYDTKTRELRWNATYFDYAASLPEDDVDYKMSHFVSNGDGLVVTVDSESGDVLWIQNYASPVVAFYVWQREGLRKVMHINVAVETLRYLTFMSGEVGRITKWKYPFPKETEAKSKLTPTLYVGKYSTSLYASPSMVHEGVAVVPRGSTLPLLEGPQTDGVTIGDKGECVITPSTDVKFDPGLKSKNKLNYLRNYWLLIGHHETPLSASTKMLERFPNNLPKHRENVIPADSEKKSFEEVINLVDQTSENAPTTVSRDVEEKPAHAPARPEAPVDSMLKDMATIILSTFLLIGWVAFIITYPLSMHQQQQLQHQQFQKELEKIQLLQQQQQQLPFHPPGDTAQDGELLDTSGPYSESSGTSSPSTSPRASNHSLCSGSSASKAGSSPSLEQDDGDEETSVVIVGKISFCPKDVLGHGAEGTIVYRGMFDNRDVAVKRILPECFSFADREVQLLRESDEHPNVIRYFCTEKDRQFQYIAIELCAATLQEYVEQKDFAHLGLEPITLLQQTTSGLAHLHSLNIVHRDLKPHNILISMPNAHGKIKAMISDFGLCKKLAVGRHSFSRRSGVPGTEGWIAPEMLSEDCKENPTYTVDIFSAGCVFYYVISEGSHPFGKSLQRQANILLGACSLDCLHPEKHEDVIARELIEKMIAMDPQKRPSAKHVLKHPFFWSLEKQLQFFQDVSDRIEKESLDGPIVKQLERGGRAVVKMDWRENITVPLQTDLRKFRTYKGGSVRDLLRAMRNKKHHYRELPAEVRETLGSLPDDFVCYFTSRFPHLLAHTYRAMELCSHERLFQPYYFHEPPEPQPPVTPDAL
# UniProt P11362, whole entry, looked up: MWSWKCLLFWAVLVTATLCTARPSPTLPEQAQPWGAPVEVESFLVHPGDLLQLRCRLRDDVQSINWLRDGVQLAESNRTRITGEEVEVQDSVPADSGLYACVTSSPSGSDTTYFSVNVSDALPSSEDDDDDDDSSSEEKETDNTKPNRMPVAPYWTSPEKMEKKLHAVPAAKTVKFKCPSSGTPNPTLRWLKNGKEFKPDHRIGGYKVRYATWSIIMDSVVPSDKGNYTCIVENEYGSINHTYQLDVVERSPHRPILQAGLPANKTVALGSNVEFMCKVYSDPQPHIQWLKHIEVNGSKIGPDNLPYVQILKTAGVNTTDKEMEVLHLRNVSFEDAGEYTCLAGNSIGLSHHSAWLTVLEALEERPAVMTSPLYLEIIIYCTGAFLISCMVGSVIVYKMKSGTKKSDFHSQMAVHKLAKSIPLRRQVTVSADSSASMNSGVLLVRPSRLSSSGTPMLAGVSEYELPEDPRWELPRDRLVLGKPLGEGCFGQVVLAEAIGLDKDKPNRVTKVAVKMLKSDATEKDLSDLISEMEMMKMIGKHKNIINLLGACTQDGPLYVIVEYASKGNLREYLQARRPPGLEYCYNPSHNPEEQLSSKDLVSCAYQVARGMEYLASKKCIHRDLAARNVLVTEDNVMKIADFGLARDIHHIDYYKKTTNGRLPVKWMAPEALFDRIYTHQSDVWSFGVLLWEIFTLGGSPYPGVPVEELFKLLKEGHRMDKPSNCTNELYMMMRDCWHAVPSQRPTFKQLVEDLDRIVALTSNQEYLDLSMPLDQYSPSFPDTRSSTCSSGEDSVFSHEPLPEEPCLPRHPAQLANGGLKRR
# UniProt P21802, whole entry, looked up: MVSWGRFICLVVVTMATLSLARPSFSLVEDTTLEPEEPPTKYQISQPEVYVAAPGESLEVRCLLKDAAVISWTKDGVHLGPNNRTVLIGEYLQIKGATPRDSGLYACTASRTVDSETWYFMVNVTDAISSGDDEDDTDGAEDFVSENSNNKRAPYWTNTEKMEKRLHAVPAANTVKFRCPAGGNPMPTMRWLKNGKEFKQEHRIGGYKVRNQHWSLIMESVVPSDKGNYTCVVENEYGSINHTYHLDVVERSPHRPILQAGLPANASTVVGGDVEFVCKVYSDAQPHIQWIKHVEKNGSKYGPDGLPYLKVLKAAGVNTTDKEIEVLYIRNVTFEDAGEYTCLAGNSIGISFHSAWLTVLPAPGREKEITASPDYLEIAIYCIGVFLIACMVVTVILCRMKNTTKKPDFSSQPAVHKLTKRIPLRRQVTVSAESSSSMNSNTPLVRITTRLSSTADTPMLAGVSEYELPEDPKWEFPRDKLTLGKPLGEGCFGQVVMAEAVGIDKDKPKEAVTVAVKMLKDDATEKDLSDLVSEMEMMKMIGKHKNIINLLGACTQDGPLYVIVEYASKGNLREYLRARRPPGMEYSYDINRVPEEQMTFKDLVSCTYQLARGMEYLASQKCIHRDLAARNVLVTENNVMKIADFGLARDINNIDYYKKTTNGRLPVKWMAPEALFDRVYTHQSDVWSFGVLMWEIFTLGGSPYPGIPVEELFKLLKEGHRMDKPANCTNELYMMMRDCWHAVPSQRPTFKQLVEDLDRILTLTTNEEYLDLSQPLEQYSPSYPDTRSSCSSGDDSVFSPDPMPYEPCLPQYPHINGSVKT
# UniProt P22607, whole entry, looked up: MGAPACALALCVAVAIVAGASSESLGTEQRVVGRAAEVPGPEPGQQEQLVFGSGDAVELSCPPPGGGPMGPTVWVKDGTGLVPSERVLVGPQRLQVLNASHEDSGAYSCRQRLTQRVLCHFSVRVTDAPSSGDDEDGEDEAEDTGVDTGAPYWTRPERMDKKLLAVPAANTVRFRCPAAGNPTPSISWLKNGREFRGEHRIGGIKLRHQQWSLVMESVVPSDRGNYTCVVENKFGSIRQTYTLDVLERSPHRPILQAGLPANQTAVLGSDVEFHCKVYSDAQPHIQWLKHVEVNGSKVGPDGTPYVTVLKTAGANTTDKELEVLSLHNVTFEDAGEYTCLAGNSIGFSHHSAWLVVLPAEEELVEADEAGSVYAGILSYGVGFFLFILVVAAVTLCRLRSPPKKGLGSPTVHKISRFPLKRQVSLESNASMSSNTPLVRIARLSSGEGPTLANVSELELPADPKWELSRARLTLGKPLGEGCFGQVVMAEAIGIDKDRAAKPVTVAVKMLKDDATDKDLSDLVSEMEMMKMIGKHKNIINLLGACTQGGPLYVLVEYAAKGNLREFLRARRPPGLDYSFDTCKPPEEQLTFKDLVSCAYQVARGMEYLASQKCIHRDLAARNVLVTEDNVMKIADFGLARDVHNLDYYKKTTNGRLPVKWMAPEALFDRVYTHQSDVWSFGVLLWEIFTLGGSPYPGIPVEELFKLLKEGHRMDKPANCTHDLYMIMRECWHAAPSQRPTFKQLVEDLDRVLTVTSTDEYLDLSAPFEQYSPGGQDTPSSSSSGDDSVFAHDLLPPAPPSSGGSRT
# UniProt P36888, whole entry: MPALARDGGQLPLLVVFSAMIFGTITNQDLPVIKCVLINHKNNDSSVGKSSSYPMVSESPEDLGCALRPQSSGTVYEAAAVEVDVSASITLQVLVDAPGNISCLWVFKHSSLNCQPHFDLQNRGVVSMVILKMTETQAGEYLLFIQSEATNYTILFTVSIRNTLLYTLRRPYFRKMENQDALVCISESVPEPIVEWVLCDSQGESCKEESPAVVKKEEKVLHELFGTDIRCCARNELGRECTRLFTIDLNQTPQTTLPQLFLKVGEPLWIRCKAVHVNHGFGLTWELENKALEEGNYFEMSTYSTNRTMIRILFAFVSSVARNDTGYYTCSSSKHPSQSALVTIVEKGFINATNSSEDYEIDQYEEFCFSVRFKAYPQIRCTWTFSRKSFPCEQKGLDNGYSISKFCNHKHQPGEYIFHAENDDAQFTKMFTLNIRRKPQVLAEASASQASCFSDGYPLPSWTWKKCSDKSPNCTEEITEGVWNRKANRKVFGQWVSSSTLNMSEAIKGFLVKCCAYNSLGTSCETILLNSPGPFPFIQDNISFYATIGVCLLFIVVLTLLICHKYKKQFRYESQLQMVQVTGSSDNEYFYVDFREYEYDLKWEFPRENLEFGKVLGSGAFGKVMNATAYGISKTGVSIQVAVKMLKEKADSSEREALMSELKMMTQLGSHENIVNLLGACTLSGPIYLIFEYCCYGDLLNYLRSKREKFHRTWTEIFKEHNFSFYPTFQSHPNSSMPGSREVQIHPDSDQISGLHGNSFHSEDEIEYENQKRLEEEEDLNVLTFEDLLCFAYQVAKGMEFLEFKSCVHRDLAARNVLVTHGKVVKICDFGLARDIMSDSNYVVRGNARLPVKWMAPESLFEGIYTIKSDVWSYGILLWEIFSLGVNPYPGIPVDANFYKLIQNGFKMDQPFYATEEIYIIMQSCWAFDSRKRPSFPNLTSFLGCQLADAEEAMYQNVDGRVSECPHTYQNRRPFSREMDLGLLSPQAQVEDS
# UniProt P06241, whole entry, looked up: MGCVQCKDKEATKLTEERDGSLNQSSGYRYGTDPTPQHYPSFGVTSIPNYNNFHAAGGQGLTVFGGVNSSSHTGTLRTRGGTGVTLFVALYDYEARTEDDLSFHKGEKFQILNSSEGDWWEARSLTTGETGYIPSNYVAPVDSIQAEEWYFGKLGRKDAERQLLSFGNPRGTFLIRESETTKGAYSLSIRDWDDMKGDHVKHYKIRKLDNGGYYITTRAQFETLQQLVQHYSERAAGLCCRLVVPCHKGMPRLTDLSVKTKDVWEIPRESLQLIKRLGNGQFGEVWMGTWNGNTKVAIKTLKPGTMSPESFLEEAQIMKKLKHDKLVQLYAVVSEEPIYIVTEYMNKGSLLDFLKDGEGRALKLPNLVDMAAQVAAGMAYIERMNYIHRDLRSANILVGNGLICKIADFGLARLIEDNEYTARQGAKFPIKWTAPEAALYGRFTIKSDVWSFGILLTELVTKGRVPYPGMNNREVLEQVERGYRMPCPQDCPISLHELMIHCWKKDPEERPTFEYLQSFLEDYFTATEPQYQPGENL
# UniProt P49840: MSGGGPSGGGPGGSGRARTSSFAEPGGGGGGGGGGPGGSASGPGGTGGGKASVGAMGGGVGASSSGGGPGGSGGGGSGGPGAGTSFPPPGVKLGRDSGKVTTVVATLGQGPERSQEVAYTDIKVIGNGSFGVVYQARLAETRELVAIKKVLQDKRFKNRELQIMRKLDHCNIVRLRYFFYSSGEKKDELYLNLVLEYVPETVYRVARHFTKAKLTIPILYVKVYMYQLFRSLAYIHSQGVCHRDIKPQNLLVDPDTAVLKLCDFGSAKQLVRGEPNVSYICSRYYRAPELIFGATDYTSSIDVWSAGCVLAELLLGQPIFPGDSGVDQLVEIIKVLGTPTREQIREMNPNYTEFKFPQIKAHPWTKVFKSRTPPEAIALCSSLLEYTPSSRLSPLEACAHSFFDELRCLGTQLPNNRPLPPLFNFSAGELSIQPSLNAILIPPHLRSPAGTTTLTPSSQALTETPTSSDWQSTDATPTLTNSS
# Where a name gives a salt, the structure may show the parent alone. The list shows a part of the results. Hit calls seldom repeat between salt and free forms of one compound.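 Kinases were expressed as nanoluciferase fusions in K562 cells and luminescence was read every 4 h between 2 and 18 h as percent of control, DMSO set to 100% and a positive control to 0%. A time point counts as decreased when the signal drops significantly (2 sigma). The hit call is the authors' own, does not follow from the count of time points alone, and its rule is not shown.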
# How the values were obtained:
# Assay in all cases: kinase-Nluc reporter destabilization hit call (1 = scored as downregulated) (binary); higher = compound decreases kinase abundance
# Conditions in all cases: K562; 2-18 h
# ERN1 = ERN1 (UniProt O75460)
# FGFR1 = FGFR1 (UniProt P11362)
# FGFR2 = FGFR2 (UniProt P21802)
# FGFR3 = FGFR3 (UniProt P22607)
# FGR = FGR (UniProt P09769)
# FLT3 = FLT3 (UniProt P36888)
# FYN = FYN (UniProt P06241)
# GSK3A = GSK3A (UniProt P49840)
# HER2 = HER2 (UniProt P04626)
# INSRR = INSRR (UniProt P14616)
SMILES,kinase-Nluc reporter destabilization hit call (ERN1),kinase-Nluc reporter destabilization hit call (FGFR1),kinase-Nluc reporter destabilization hit call (FGFR2),kinase-Nluc reporter destabilization hit call (FGFR3),kinase-Nluc reporter destabilization hit call (FGR),kinase-Nluc reporter destabilization hit call (FLT3),kinase-Nluc reporter destabilization hit call (FYN),kinase-Nluc reporter destabilization hit call (GSK3A),kinase-Nluc reporter destabilization hit call (HER2),kinase-Nluc reporter destabilization hit call (INSRR)
C[C@@]1(c2ncncc2F)NC(=O)c2cc(-c3cn[nH]c3)ccc21 (10 µM),inactive: 0,inactive: 0,inactive: 0,inactive: 0,inactive: 0,inactive: 0,inactive: 0,inactive: 0,inactive: 0,inactive: 0
Nc1cc(C(F)(F)F)c(-c2cc(N3CCOCC3)nc(N3CCOCC3)n2)cn1 [Buparlisib (Hydrochloride)] (2.5 µM),inactive: 0,inactive: 0,inactive: 0,inactive: 0,inactive: 0,inactive: 0,inactive: 0,inactive: 0,inactive: 0,inactive: 0
COc1cc(Nc2ncc(F)c(Nc3ccc4c(n3)NC(=O)C(C)(C)O4)n2)cc(OC)c1OC [R406 (free base)] (10 µM),inactive: 0,inactive: 0,,inactive: 0,inactive: 0,inactive: 0,,inactive: 0,inactive: 0,inactive: 0
Cc1[nH]c(/C=C2\C(=O)Nc3ccc(F)cc32)c(C)c1C(=O)N[C@H]1CCN(C(=O)N(C)C)C1 [Vorolanib] (10 µM),inactive: 0,inactive: 0,inactive: 0,inactive: 0,inactive: 0,inactive: 0,inactive: 0,inactive: 0,inactive: 0,inactive: 0
CN(C)CCCOc1ccc(-c2ccc3ncc4c(c3c2)n(C2CCOCC2)c(=O)n4C)cn1 (2 µM),inactive: 0,inactive: 0,inactive: 0,inactive: 0,inactive: 0,inactive: 0,inactive: 0,inactive: 0,inactive: 0,inactive: 0
O=c1cc(CN2CCOCC2)occ1OCCCCCSc1ccnc2cc(C(F)(F)F)ccc12 (10 µM),inactive: 0,inactive: 0,inactive: 0,inactive: 0,inactive: 0,inactive: 0,inactive: 0,inactive: 0,inactive: 0,inactive: 0
O=C1NC(=O)/C(=C/c2ccc3nccnc3c2)S1 (10 µM),inactive: 0,inactive: 0,inactive: 0,inactive: 0,inactive: 0,inactive: 0,inactive: 0,inactive: 0,inactive: 0,inactive: 0
CCCS(=O)(=O)Nc1ccc(F)c(C(=O)c2c[nH]c3ncc(-c4ccc(Cl)cc4)cc23)c1F [Vemurafenib] (10 µM),inactive: 0,inactive: 0,inactive: 0,inactive: 0,inactive: 0,inactive: 0,inactive: 0,inactive: 0,inactive: 0,inactive: 0
FC(F)(F)c1ccc(CNc2ccc(Cc3c[nH]c4ncccc34)cn2)cc1 (10 µM),inactive: 0,inactive: 0,inactive: 0,inactive: 0,inactive: 0,inactive: 0,inactive: 0,inactive: 0,inactive: 0,inactive: 0
COc1cc2nccc(Oc3ccc(NC(=O)NC4CC4)c(Cl)c3)c2cc1C(N)=O [Lenvatinib (mesylate)] (10 µM),inactive: 0,inactive: 0,inactive: 0,inactive: 0,inactive: 0,inactive: 0,inactive: 0,inactive: 0,inactive: 0,inactive: 0
CC#CC(=O)N1CC[C@@H](n2c(=O)n(-c3ccc(Oc4ccccc4)cc3)c3c(N)ncnc32)C1 [Tirabrutinib] (10 µM),inactive: 0,inactive: 0,inactive: 0,inactive: 0,inactive: 0,inactive: 0,inactive: 0,inactive: 0,inactive: 0,inactive: 0
O=C(NCCN1CCOCC1)c1cc2c(Oc3ccc(NC(=O)C4(C(=O)Nc5ccc(F)cc5)CC4)cc3)ccnc2[nH]1 [Tyrosine kinase inhibitor] (10 µM),inactive: 0,inactive: 0,inactive: 0,inactive: 0,inactive: 0,inactive: 0,inactive: 0,inactive: 0,inactive: 0,inactive: 0
COc1cc2ncnc(Nc3ccc(Cl)cc3F)c2cc1OC (10 µM),inactive: 0,inactive: 0,inactive: 0,inactive: 0,inactive: 0,inactive: 0,inactive: 0,inactive: 0,inactive: 0,inactive: 0
O=Nc1c(-c2c(O)[nH]c3ccc(F)cc23)[nH]c2ccccc12 [5'-Fluoroindirubinoxime] (10 µM),inactive: 0,active: 1,active: 1,inactive: 0,inactive: 0,inactive: 0,inactive: 0,inactive: 0,inactive: 0,inactive: 0
C=CC(=O)Nc1ccc(CN2C(=O)N(c3cc(OC)cc(OC)c3)Cc3cnc(Nc4ccc(N5CCN(C)CC5)cc4)nc32)cc1 (2.5 µM),inactive: 0,inactive: 0,inactive: 0,inactive: 0,inactive: 0,inactive: 0,inactive: 0,inactive: 0,active: 1,inactive: 0
CCOC(=O)N1CCN(C(=O)[C@H](Cc2cccc(C(=N)N)c2)NS(=O)(=O)c2c(C(C)C)cc(C(C)C)cc2C(C)C)CC1 (10 µM),inactive: 0,inactive: 0,inactive: 0,inactive: 0,inactive: 0,inactive: 0,inactive: 0,inactive: 0,inactive: 0,inactive: 0
CC(C)(O)CNc1ncc(-c2ccnc(Nc3ccnc(Cl)c3)n2)c(CC2CC2)n1 (2.5 µM),inactive: 0,inactive: 0,inactive: 0,inactive: 0,inactive: 0,inactive: 0,inactive: 0,inactive: 0,inactive: 0,inactive: 0
CC#CC(=O)Nc1ccc2ncnc(Nc3cccc(Br)c3)c2c1 (10 µM),inactive: 0,inactive: 0,inactive: 0,inactive: 0,inactive: 0,inactive: 0,inactive: 0,inactive: 0,inactive: 0,inactive: 0
CCC(C)N1c2ccccc2C(=O)N(C)c2cnc(Nc3ccc(C(=O)N4CCC(N5CCN(C)CC5)CC4)cc3OC)nc21 (configuration not stated) (2.5 µM),inactive: 0,inactive: 0,inactive: 0,inactive: 0,inactive: 0,inactive: 0,inactive: 0,inactive: 0,inactive: 0,inactive: 0
NC(=O)c1ccc2[nH]ccc2c1 (10 µM),inactive: 0,inactive: 0,inactive: 0,inactive: 0,inactive: 0,inactive: 0,inactive: 0,inactive: 0,inactive: 0,inactive: 0
COc1ccccc1-c1cc(Nc2cccc(CS(N)(=O)=O)c2)ncn1 (10 µM),inactive: 0,inactive: 0,inactive: 0,inactive: 0,inactive: 0,inactive: 0,inactive: 0,inactive: 0,inactive: 0,inactive: 0
NC(=O)c1nc(Nc2ccccc2)sc1NC(=O)C1CCCCC1 (10 µM),inactive: 0,inactive: 0,inactive: 0,inactive: 0,inactive: 0,inactive: 0,inactive: 0,inactive: 0,inactive: 0,inactive: 0
CNc1nc(Nc2ccc(C(=O)N3CCOCC3)cc2OC)nc2[nH]cc(Cl)c12 (2.5 µM),inactive: 0,inactive: 0,inactive: 0,inactive: 0,inactive: 0,inactive: 0,inactive: 0,inactive: 0,inactive: 0,inactive: 0
Nc1nc2ccc(Cl)cc2c2nc(-c3ccco3)nn12 (10 µM),inactive: 0,inactive: 0,inactive: 0,inactive: 0,inactive: 0,inactive: 0,inactive: 0,inactive: 0,inactive: 0,inactive: 0
C=C(CC[C@@H](C(=O)O)[C@H]1[C@H](O)C[C@@]2(C)C3=C(CC[C@]12C)[C@@]1(C)CC[C@H](OC(C)=O)C(C)(C)[C@@H]1CC3)C(C)C [Pachymic acid] (10 µM),inactive: 0,inactive: 0,inactive: 0,inactive: 0,inactive: 0,inactive: 0,inactive: 0,inactive: 0,inactive: 0,inactive: 0
COc1cc2c(N3CCN(C(=O)Nc4ccc(OC(C)C)cc4)CC3)ncnc2cc1OCCCN1CCCCC1 [Tandutinib] (10 µM),inactive: 0,inactive: 0,inactive: 0,inactive: 0,inactive: 0,,inactive: 0,inactive: 0,inactive: 0,inactive: 0
C[C@@H](c1ccc(-c2ccccc2)c(F)c1)c1cc(NC(=N)N2CCOCC2)on1 [Rimacalib] (10 µM),inactive: 0,inactive: 0,inactive: 0,inactive: 0,inactive: 0,inactive: 0,inactive: 0,inactive: 0,inactive: 0,inactive: 0
CN1CCC(c2cc(-c3ccncc3)c(-c3ccc(F)cc3)[nH]2)CC1 (10 µM),inactive: 0,inactive: 0,inactive: 0,inactive: 0,inactive: 0,inactive: 0,inactive: 0,inactive: 0,inactive: 0,inactive: 0
Cc1ccc(C(=O)Nc2ccc(Oc3cc4cnn(C)c4cc3-c3cn[nH]c3)c(F)c2)c(=O)n1-c1ccc(F)cc1 [Merestinib] (2.5 µM),inactive: 0,inactive: 0,inactive: 0,inactive: 0,inactive: 0,inactive: 0,inactive: 0,inactive: 0,inactive: 0,inactive: 0

# 2 records drawn at random from those above, as already listed:
SMILES,kinase-Nluc reporter destabilization hit call (ERN1),kinase-Nluc reporter destabilization hit call (FGFR1),kinase-Nluc reporter destabilization hit call (FGFR2),kinase-Nluc reporter destabilization hit call (FGFR3),kinase-Nluc reporter destabilization hit call (FGR),kinase-Nluc reporter destabilization hit call (FLT3),kinase-Nluc reporter destabilization hit call (FYN),kinase-Nluc reporter destabilization hit call (GSK3A),kinase-Nluc reporter destabilization hit call (HER2),kinase-Nluc reporter destabilization hit call (INSRR)
NC(=O)c1ccc2[nH]ccc2c1 (10 µM),inactive: 0,inactive: 0,inactive: 0,inactive: 0,inactive: 0,inactive: 0,inactive: 0,inactive: 0,inactive: 0,inactive: 0
COc1cc2nccc(Oc3ccc(NC(=O)NC4CC4)c(Cl)c3)c2cc1C(N)=O [Lenvatinib (mesylate)] (10 µM),inactive: 0,inactive: 0,inactive: 0,inactive: 0,inactive: 0,inactive: 0,inactive: 0,inactive: 0,inactive: 0,inactive: 0
